Results: the supplement of paper PMC12282887
These are raw signals, not scaled to a control.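 For antimicrobials the highest concentration approximated the MIC. Most other compounds topped out at 500 µM, and known inducer-like compounds reached up to 1 mM. Inocula for deletion strains were tenfold smaller, and any well growing below 10% of the overall median was considered non-growing.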

System: Escherichia coli BW25113
Test: growth (OD600 area under curve, 8 h) (OD600 x h); higher = more growth
Protocol: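 E. coli BW25113 reporter strains (wild type, ΔmarA, ΔsoxS, Δrob, each carrying one of 8 lux reporter plasmids) were grown in 40 µl LB in 384-well plates at 37°C, 800 rpm, with each compound at 4 two-fold concentrations, in biological duplicates. Growth is the baseline-corrected OD600 area under the curve over 8 h (0-8 h WT, 1-9 h deletion strains).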

O=C(O)c1ccccc1O [Salicylate]
growth
Settings	reporter plasmid: EVC	reporter plasmid: acrABp	reporter plasmid: marRABp	reporter plasmid: micFp	reporter plasmid: ompFp	reporter plasmid: robp	reporter plasmid: soxSp	reporter plasmid: tolCp
17.3 µg/ml, genetic background: wild type	3.25	3.05	3.386	2.99	3.34	3.447	3.05	3.08
17.3 µg/ml, genetic background: ΔmarA	3.24	3.99	3.64	3.36	3.75	3.97	2.88	2.85
17.3 µg/ml, genetic background: Δrob	3.2	3.27	3.42	2.96	2.96	2.9	2.85	2.95
17.3 µg/ml, genetic background: ΔsoxS	3.44	3.4	3.42	3.05	3.27	3.66	3.49	3.42
34.5 µg/ml, genetic background: wild type	3.17	3.1	3.395	3.08	3.2	3.52	3.05	3.12
34.5 µg/ml, genetic background: ΔmarA	3	4.31	3.73	3.31	3.89	4.04	2.74	2.9
34.5 µg/ml, genetic background: Δrob	3.11	2.8	3.33	3.03	2.8	2.87	2.69	3.08
34.5 µg/ml, genetic background: ΔsoxS	3.42	3.34	3.12	3.09	3.146	3.3	3.28	3.46
69.1 µg/ml, genetic background: wild type	3.23	3.08	3.35	3.11	3.34	3.583	2.98	3.26
69.1 µg/ml, genetic background: ΔmarA	3.14	4.1	3.74	3.38	3.94	4.12	3.11	3
69.1 µg/ml, genetic background: Δrob	3.14	3.225	3.54	3.03	2.9	3.07	2.64	3.29
69.1 µg/ml, genetic background: ΔsoxS	3.35	3.63	3.52	2.977	3.38	3.65	3.12	3.32
138.1 µg/ml, genetic background: wild type	2.933	2.4	2.48	2.61	2.79	3.06	2.61	2.91
138.1 µg/ml, genetic background: ΔmarA	2.89	3.37	2.4	2.8	3.14	3.72	2.25	2.63
138.1 µg/ml, genetic background: Δrob	2.81	2.73	2.57	2.55	2.07	2.06	2.52	3.145
138.1 µg/ml, genetic background: ΔsoxS	3.22	2.52	2.34	2.3408	2.27	2.52	2.75	3.28

CN(C)C(=N)NC(=N)N [Metformin]
growth
Settings	reporter plasmid: EVC	reporter plasmid: acrABp	reporter plasmid: marRABp	reporter plasmid: micFp	reporter plasmid: ompFp	reporter plasmid: robp	reporter plasmid: soxSp	reporter plasmid: tolCp
20.7 µg/ml, genetic background: wild type	3.15	3.43	3.49	3.22	3.44	3.48	3.119	3.35
20.7 µg/ml, genetic background: ΔmarA	3.46	4.4	3.78	3.22	3.58	4.2	2.99	3.19
20.7 µg/ml, genetic background: Δrob	3.05	3.31	3.58	3.22	2.78	2.82	3.03	3.19
20.7 µg/ml, genetic background: ΔsoxS	3.256	3.22	3.49	2.83	3.37	3.63	3.02	3.36
41.4 µg/ml, genetic background: wild type	3.16	3.33	3.375	3.28	3.34	3.42	3.1	3.26
41.4 µg/ml, genetic background: ΔmarA	3.4	4.41	3.96	3.22	3.68	4.17	2.94	3.05
41.4 µg/ml, genetic background: Δrob	2.9	3.0548	3.48	3.2	2.69	2.8	3.02	3.21
41.4 µg/ml, genetic background: ΔsoxS	3.288	3.3	3.37	3.05	3.25	3.35	3.2	3.19
82.8 µg/ml, genetic background: wild type	3.07	3.22	3.302	3.2	3.45	3.45	3.128	3.24
82.8 µg/ml, genetic background: ΔmarA	3.61	4.3	3.83	3.45	3.77	4.22	3.13	3.32
82.8 µg/ml, genetic background: Δrob	3.09	2.92	3.5	3.17	2.97	2.877	3.09	3.1145
82.8 µg/ml, genetic background: ΔsoxS	3.38	3.55	3.6	3.07	3.36	3.51	3.48	3.37
165.6 µg/ml, genetic background: wild type	3.07	3.165	3.35	3	3.31	3.5	3.17	3.16
165.6 µg/ml, genetic background: ΔmarA	3.46	4.05	3.8	3.3	3.57	4.03	3.04	3.14
165.6 µg/ml, genetic background: Δrob	2.99	2.67	3.27	3.04	2.82	2.61	2.83	3.18
165.6 µg/ml, genetic background: ΔsoxS	3.25	3.06	3.26	2.66	3.09	3.17	3.27	3.45

CC[C@H]1OC(=O)[C@H](C)[C@@H](O[C@H]2C[C@@](C)(OC)[C@@H](O)[C@H](C)O2)[C@H](C)[C@@H](O[C@@H]2O[C@H](C)C[C@H](N(C)C)[C@H]2O)[C@](C)(OC)C[C@@H](C)C(=O)[C@H](C)[C@@H](O)[C@]1(C)O [Clarithromycin]
growth
Settings	reporter plasmid: EVC	reporter plasmid: acrABp	reporter plasmid: marRABp	reporter plasmid: micFp	reporter plasmid: ompFp	reporter plasmid: robp	reporter plasmid: soxSp	reporter plasmid: tolCp
3.7 µg/ml, genetic background: wild type	1.73	1.86	2.36	2.42	2.08	2.34	2.82	2.4
3.7 µg/ml, genetic background: ΔmarA	2.02	2.7	2.372	1.7	2.03	2.67	2.38	1.78
3.7 µg/ml, genetic background: Δrob	1.55	1.72	2.17	1.89	1.46	1.47	2.35	1.91
3.7 µg/ml, genetic background: ΔsoxS	1.74	1.69	1.97	1.35	1.77	1.61	1.74	1.65
7.5 µg/ml, genetic background: wild type	1.6	1.26	1.71	1.83	1.51	1.7	2.27	1.69
7.5 µg/ml, genetic background: ΔmarA	1.35	1.85	1.66	1.15	1.3	1.81	1.75	1.05
7.5 µg/ml, genetic background: Δrob	1.08	1.15	1.53	1.33	0.939	0.923	1.76	1.29
7.5 µg/ml, genetic background: ΔsoxS	1.09	0.891	1.13	0.663	1.05	0.808	0.944	1.02
15 µg/ml, genetic background: wild type	0.809	0.876	1.18	1.17	0.871	1.25	1.72	1.27
15 µg/ml, genetic background: ΔmarA	0.952	0.408	0.37	0.55	0.249	0.592	1.14	0.528
15 µg/ml, genetic background: Δrob	0.69	0.421	0.669	0.647	0.184	0.248	1.16	0.756
15 µg/ml, genetic background: ΔsoxS	0.629	0.356	0.378	0.238	0.377	0.194	0.334	0.54
29.9 µg/ml, genetic background: wild type	0.382	0.312	0.542	0.708	0.372	0.554	1.19	0.94
29.9 µg/ml, genetic background: ΔmarA	0.343	0.0347	0.0627	0.0916	-0.0275	0.195	0.562	0.0469
29.9 µg/ml, genetic background: Δrob	0.0306	0.0796	0.0989	0.198	-0.0275	0.0533	0.459	0.332
29.9 µg/ml, genetic background: ΔsoxS	0.129	0.056	0.0588	0.00347	0.0419	-0.00277	0.0975	0.137
